Results on one molecule are retold here after PMC8315805.

The target in this assay is GFP-tagged TRIM25 (human (cDNA from HEK293T)), Q14258. The experiment in a line: co-IP. The following applies: remark: other sources report otherwise.

Results are given in words; binding and its absence hold for the method and conditions named. In cells and extracts the contact can be indirect. Some entries that bind do so weakly or less than the wild type. Where a sequence is shown, tags or fusion partners need not be part of it.

B1: Flag-RIG-I, O95786 1-925 (protein)
chain: MTTEQRRSLQAFQDYIRKTLDPTYILSYMAPWFREEEVQYIQAEKNNKGPMEAATLFLKFLLELQEEGWFRGFLDALDHAGYSGLYEAIESWDFKKIEKLEEYRLLLKRLQPEFKTRIIPTDIISDLSECLINQECEEILQICSTKGMMAGAEKLVECLLRSDKENWPKTLKLALEKERNKFSELWIVEKGIKDVETEDLEDKMETSDIQIFYQEDPECQNLSENSCPPSEVSDTNLYSPFKPRNYQLELALPAMKGKNTIICAPTGCGKTFVSLLICEHHLKKFPQGQKGKVVFFANQIPVYEQQKSVFSKYFERHGYRVTGISGATAENVPVEQIVENNDIIILTPQILVNNLKKGTIPSLSIFTLMIFDECHNTSKQHPYNMIMFNYLDQKLGGSSGPLPQVIGLTASVGVGDAKNTDEALDYICKLCASLDASVIATVKHNLEELEQVVYKPQKFFRKVESRISDKFKYIIAQLMRDTESLAKRICKDLENLSQIQNREFGTQKYEQWIVTVQKACMVFQMPDKDEESRICKALFLYTSHLRKYNDALIISEHARMKDALDYLKDFFSNVRAAGFDEIEQDLTQRFEEKLQELESVSRDPSNENPKLEDLCFILQEEYHLNPETITILFVKTRALVDALKNWIEGNPKLSFLKPGILTGRGKTNQNTGMTLPAQKCILDAFKASGDHNILIATSVADEGIDIAQCNLVILYEYVGNVIKMIQTRGRGRARGSKCFLLTSNAGVIEKEQINMYKEKMMNDSILRLQTWDEAVFREKILHIQTHEKFIRDSQEKPKPVPDKENKKLLCRKCKALACYTADVRVIEECHYTVLGDAFKECFVSRPHPKPKQFSSFEKRAKIFCARQNCSHDWGIHVKYKTFEIPVIKIESFVVEDIATGVQTLYSKWKDFHFEKIPFDPAEMSK
On to B1, for which the binding entry is listed as “binds”.
